These are yes or no findings as the source states them, for the method shown. In cells and extracts the contact can be indirect. Some binding calls cover weakened binding; strength is not graded here.

Amino acid sequences for entries named in this document (tags omitted). A change or cut given only in a name is not applied to a line headed by its entry. Chains listed by the source or under a name are the forms on record and can include a tag or linker.
UniProt P40763: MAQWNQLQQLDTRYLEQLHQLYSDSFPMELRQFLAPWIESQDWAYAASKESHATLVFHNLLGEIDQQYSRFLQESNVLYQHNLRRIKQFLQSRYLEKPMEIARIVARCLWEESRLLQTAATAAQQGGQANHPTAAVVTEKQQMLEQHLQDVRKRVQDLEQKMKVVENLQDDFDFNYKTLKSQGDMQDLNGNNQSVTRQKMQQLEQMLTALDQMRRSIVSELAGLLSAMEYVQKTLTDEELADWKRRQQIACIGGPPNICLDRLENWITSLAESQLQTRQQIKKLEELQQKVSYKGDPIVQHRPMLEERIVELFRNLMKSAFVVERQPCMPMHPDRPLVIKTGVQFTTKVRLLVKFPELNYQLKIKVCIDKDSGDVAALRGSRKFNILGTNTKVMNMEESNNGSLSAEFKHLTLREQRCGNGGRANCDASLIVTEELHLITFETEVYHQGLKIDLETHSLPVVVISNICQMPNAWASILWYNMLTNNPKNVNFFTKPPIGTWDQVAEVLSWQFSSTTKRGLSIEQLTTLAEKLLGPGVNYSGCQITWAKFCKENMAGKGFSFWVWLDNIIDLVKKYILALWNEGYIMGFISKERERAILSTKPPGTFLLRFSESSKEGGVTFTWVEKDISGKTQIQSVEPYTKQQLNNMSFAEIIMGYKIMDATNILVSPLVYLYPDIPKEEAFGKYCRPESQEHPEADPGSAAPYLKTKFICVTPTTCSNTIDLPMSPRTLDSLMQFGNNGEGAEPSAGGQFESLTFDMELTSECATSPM
STAT3-YF-YFP (P40763, form named): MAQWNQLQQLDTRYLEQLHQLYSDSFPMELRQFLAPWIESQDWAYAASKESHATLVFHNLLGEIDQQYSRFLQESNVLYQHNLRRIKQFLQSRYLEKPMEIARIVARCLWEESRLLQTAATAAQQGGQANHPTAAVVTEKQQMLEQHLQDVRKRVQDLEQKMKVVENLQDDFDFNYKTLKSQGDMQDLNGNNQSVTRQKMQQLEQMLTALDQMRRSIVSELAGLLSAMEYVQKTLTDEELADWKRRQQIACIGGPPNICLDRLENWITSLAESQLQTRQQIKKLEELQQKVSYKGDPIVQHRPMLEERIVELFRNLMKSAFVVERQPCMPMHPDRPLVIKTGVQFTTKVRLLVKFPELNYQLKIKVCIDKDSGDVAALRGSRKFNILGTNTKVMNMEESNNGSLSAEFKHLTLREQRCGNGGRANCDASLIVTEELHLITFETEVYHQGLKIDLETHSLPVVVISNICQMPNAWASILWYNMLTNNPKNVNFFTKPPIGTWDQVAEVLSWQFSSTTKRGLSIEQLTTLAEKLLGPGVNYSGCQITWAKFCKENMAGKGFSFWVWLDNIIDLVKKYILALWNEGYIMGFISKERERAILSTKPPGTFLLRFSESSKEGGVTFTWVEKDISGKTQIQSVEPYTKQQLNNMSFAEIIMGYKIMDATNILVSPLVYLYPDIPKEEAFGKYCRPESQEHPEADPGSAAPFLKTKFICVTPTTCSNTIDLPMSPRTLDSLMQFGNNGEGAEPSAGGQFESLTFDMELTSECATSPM

The values below come from PMC3833267.

The target in the test is T1, biotinylated gp130-receptor-peptide containing phosphotyrosine 767.
T1 sequence (peptide, phosphotyrosine at 767; beta-alanine between biotin and the N-terminus): TVVHSGYRHQVPSV
Description: pull-down; peptide-precipitation: biotinylated gp130 pY767 peptide (3 nmol) on NeutrAvidin agarose, incubated with 250 ug lysate of transfected HEKgp80 cells (IL-6 20 ng/ml 30 min or unstimulated) over night at 4°C in storage buffer (150 mM NaCl, 50 mM Tris-HCl pH 7.5, 0.1 mM EDTA, 10% glycerin, 0.5% Nonidet P40); immunoblot with STAT3 antibody; only the target purified. For orientation: In western blotting, separated proteins are transferred to a membrane and probed.

As for “STAT3-YF-YFP (from UniProt P40763 1-770)”, the binding result was “binds”.

As to STAT3-YFP (from UniProt P40763 1-770), the binding result is reported as “binds”.
